PubChem BioAssay AID1259405 – NCATS | 2018
Purpose: 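Knock-downs that lift recombinant protein yield in hamster ovary cells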 (primary screen). System: Chinese hamster CHO-K1 ovary cells with stable secreted eGFP expression. Reagents: single siRNA against mouse genes, 0.8 pmol siRNA per well (2 µl of 400 nM stock). Duration: 3 days. Detection: 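Per-well intracellular GFP measured by laser scanning cytometry, plus viability from ATP luminescence, each relative to plate median of non-targeting control wells, in %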. Reading the numbers: GFP, % of control: higher = more GFP per well, higher productivity; viability (ATP), % of control: higher = more viable cells (more ATP). Rule for the call: 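a knock-down is called active if GFP reaches 120% or more of non-targeting control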.
Here is an unselected part of about 50,000 reagents. Over the whole deposit, about 4,000 (8%) got an active call. 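Mouse siRNA library applied to hamster cells; one well for each siRNA.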 The numbers tell different reagents against one gene apart.

1700001G17Rik (RIKEN cDNA 1700001G17 gene) #1 scored GFP, % of control 111; viability (ATP), % of control 89.8; inactive.
With knock-down of 1700001G17Rik (RIKEN cDNA 1700001G17 gene) #2, the screen gave GFP, % of control 45.4; viability (ATP), % of control 53.9; inactive.
After knock-down of 1700001G17Rik (RIKEN cDNA 1700001G17 gene) #3 the results were GFP, % of control 88.4; viability (ATP), % of control 79; inactive.
Knock-down of Or5b101 (olfactory receptor family 5 subfamily B member 101) #1 gave: GFP, % of control 36.1; viability (ATP), % of control 32.7; inactive.
Against Or5b101 (olfactory receptor family 5 subfamily B member 101) #2 the deposit lists GFP, % of control 67.8; viability (ATP), % of control 91.6; inactive.
With knock-down of Or5b101 (olfactory receptor family 5 subfamily B member 101) #3, the record shows GFP, % of control 90.3; viability (ATP), % of control 58.2; inactive.
Depletion of Rnf133 (ring finger protein 133) #1 gave: GFP, % of control 81.1; viability (ATP), % of control 74.2; inactive.
Against Rnf133 (ring finger protein 133) #2 the deposit lists GFP, % of control 71.4; viability (ATP), % of control 54.8; inactive.
With knock-down of Rnf133 (ring finger protein 133) #3 the results were GFP, % of control 88.2; viability (ATP), % of control 80.9; inactive.
After knock-down of Gpr82 (G protein-coupled receptor 82) #1, the record shows GFP, % of control 139; viability (ATP), % of control 107; active.
Gpr82 (G protein-coupled receptor 82) #2 gave GFP, % of control 84.2; viability (ATP), % of control 69.6; inactive.
Gpr82 (G protein-coupled receptor 82) #3 gave GFP, % of control 72.3; viability (ATP), % of control 73.9; inactive.
For Or7c19 (olfactory receptor family 7 subfamily C member 19) #1, the values are GFP, % of control 69.6; viability (ATP), % of control 31.4; inactive.
Or7c19 (olfactory receptor family 7 subfamily C member 19) #2 gave GFP, % of control 79.2; viability (ATP), % of control 81; inactive.
Against Or7c19 (olfactory receptor family 7 subfamily C member 19) #3, the values are GFP, % of control 46; viability (ATP), % of control 111; inactive.
Knock-down of Pym1 (PYM homolog 1, exon junction complex associated factor) #1 resulted in: GFP, % of control 20.5; viability (ATP), % of control 23.8; inactive.
Pym1 (PYM homolog 1, exon junction complex associated factor) #2 showed GFP, % of control 71; viability (ATP), % of control 56.6; inactive.
Knock-down of Pym1 (PYM homolog 1, exon junction complex associated factor) #3 gave: GFP, % of control 135; viability (ATP), % of control 112; active.
